Test results: patent US20070066580A1, “Novel aldosterone antagonists and uses thereof” (Recordati Ireland Limited, priority 2005, published 2007)
At least one compound was matched to its structure with a doubt left. Some entries share one result that the patent states for a list of compounds.

Amino acid sequences for entries named in this document (tags omitted). Chains listed by the source or under a name are the forms on record and can include a tag or linker.
UniProt P08235, with tags, fused parts or gaps limits assumed: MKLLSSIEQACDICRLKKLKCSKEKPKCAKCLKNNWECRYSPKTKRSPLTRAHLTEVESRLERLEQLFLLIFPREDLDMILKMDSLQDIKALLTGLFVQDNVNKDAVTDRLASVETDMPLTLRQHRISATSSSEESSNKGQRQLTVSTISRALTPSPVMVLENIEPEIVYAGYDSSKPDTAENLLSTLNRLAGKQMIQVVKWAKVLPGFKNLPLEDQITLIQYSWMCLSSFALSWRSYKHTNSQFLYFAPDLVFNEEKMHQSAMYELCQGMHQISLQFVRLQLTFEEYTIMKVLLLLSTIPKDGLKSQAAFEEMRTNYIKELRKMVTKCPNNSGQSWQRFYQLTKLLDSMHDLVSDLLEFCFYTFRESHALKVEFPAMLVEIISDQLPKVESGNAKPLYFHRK

Tests used:
[1] = target: T1, Human recombinant glucocorticoid receptor (GR) (Homo sapiens, UniProt P04150); test: Glucocorticoid receptor (GR) binding assay, [3H]dexamethasone displacement; settings: selectivity ratio, competitive binding
T1 construct: purchased PanVera/Invitrogen P2812
T1 sequence (P04150 1-777): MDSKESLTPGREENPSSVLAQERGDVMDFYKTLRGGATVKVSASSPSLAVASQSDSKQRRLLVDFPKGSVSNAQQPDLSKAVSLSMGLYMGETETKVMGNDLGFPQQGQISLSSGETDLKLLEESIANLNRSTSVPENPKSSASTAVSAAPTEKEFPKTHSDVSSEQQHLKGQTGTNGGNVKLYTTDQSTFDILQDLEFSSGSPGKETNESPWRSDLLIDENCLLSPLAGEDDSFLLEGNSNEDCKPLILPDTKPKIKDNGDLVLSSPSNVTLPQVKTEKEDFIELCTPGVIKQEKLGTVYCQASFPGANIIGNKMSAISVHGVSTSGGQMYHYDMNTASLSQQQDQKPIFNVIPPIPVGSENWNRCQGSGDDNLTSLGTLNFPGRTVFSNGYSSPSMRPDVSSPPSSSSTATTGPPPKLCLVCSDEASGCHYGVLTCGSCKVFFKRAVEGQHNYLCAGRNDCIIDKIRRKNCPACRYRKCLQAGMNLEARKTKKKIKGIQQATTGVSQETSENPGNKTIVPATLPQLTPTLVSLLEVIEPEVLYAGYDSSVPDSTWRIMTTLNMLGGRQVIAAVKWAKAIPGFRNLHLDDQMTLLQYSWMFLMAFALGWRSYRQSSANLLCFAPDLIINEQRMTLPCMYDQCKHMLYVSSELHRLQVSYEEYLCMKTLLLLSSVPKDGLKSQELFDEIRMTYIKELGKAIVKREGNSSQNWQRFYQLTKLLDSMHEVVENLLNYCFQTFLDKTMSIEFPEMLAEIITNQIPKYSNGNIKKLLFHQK

[2] = target: T2, GAL4 DBD-hMR LBD fusion protein (Homo sapiens, UniProt P08235); test: Cell-based luciferase assay, agonist mode (CV-1 cells); settings: 10 μM of compound
T2 construct: expressed in transfected cells; host or cells: CV-1 cells (African green monkey kidney), transient co-transfection with pCMX-GAL4-based vector and Galp3TKLuc reporter
From the text: GAL4 DBD-hMR LBD fusion protein expression vector: A pCMX-GAL4-based vector was used for the expression of a fusion protein composed of the amino acids 1-147 of the DNA binding domain of Saccharomyces cerevisiae GAL4 (GAL4 DBD) (SEQ ID NO: 16) and amino acid residues 729-984 of the ligand binding domain of human mineralocorticoid receptor (hMR LBD) (SEQ ID NO: 14). The expression vector contained an expression cassette of the nucleotide sequence for the GAL4 DBD (See SEQ ID NO: 19) ligated to nucleotides 2401 through 3168 of the human mineralocorticoid (hMR) receptor (SEQ ID NO: 13).
In vitro cell culture: CV-1 cells (African green monkey kidney cell line, ATCC accession number CCL-70) were maintained in culture in 90% DMEM medium supplemented by 9% FCS and 1% Penicillin-Streptomycin-L-Glutamine at 37° C. under 8.5% CO2.
These cells were transiently co-transfected with the GAL4 DBD-hMR LBD fusion protein expression vector and the Galp3TKLuc reporter gene vector using the FuGENE 6 Transfection Reagent (Roche) according to the manufacturer's instructions.
Agonist assay: As a positive control, aldosterone (Acros Organics, catalogue # 215360050) was used at a concentration of 100 nM. […] After an incubation period of 5 min at RT, luminescence signals were read on a microplate reader (Molecular Devices/LJL Biosystems). […]

[3] = target: T3, Human recombinant progesterone receptor (PR) (Homo sapiens, UniProt P06401); test: Progesterone receptor (PR) binding assay, [3H]promegestone displacement; settings: selectivity ratio, competitive binding
T3 construct: purchased PanVera/Invitrogen P2835
T3 sequence (P06401 1-933): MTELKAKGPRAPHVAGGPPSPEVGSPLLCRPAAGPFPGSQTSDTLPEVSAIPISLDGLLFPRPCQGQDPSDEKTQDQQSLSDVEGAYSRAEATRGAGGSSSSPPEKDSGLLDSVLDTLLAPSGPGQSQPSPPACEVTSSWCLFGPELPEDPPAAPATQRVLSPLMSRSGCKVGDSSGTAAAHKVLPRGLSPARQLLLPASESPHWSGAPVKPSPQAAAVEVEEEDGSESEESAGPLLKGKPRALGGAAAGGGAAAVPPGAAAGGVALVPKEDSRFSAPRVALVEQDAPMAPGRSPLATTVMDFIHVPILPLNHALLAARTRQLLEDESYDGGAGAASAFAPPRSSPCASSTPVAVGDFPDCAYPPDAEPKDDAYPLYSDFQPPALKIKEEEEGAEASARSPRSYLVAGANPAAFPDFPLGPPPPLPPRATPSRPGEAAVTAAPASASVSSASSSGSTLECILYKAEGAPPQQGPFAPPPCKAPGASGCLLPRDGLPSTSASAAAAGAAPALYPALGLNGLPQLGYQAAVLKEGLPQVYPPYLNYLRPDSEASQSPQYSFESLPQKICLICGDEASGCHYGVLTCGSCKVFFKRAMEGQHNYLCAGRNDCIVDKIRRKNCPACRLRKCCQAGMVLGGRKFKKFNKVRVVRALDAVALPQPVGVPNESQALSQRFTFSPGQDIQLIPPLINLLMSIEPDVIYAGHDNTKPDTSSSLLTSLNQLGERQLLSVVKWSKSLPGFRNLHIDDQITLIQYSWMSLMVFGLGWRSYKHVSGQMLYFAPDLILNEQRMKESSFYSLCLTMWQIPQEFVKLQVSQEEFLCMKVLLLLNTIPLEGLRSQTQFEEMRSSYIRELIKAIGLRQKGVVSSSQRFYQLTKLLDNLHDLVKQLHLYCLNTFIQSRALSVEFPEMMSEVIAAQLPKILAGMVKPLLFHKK

Structure (SMILES)	IR^GR/MR = IC50^GR/IC50^MR [1]	potency for activation of MR relative to aldosterone [2]	IR^PR/MR = IC50^PR/IC50^MR [3]
CCS[C@@H]1CC2=CC(=O)CC[C@]2(C)[C@@]23O[C@@H]2C[C@@]2(C)C(CC[C@@]24CCC(=O)O4)C13 (stereo partly shown) [Example 7]	≥ 10.0	at least three orders of magnitude less potent than aldosterone	≥ 10.0
CCS[C@@H]1CC2=CC(=O)CC[C@]2(C)C2=CC[C@@]3(C)C(CC[C@@]34CCC(=O)O4)C21 (stereo partly shown) [Example 13]	≥ 10.0		≥ 10.0
CO/N=C/[C@@H]1CC2=CC(=O)CC[C@]2(C)[C@@]23O[C@@H]2C[C@@]2(C)C(CC[C@@]24CCC(=O)O4)C13 (stereo partly shown) [Example 52]	≥ 10.0		≥ 10.0
CCC[C@@H]1CC2=CC(=O)CC[C@]2(C)C2=CC[C@@]3(C)C(C21)[C@@H]1C[C@@H]1[C@@]31CCC(=O)O1 (stereo partly shown) [Example 70]	≥ 100.0		≥ 100.0
C[C@]12CCC(=O)C=C1CCC1C2=CC[C@@]2(C)C1[C@@H]1C[C@@H]1[C@@]21COC(=O)O1 (stereo partly shown) [Example 75]	≥ 100.0		≥ 100.0
C[C@]12CCC(=O)C=C1C[C@@H](C#N)C1C2=CC[C@@]2(C)C1[C@@H]1C[C@@H]1[C@@]21COC(=O)O1 (stereo partly shown) [Example 76]	≥ 100.0		≥ 100.0
COC(=O)[C@@H]1CC2=CC(=O)CC[C@]2(C)[C@@]23O[C@@H]2C[C@@]2(C)C(C13)[C@@H]1C[C@@H]1[C@@]21COC(=O)O1 (stereo partly shown) [Example 78]	≥ 10.0		≥ 10.0
COC(=O)[C@H]1C2C3CC[C@@]4(CCC(=O)O4)[C@@]3(C)C[C@H]3O[C@@]23[C@@]2(C)CCC(=O)C=C2C12CC2 (stereo partly shown) [Example 81]	≥ 10.0		≥ 10.0
CO/N=C/[C@@H]1CC2=CC(=O)CC[C@]2(C)[C@@]23O[C@@H]2C[C@@]2(C)C(C13)[C@@H]1C[C@@H]1[C@@]21COC(=O)O1 (stereo partly shown) [Example 84]	≥ 10.0		≥ 10.0
